Reference: PMC9054788

Molecular target: T1, Midkine (UniProt P21741)
T1 sequence: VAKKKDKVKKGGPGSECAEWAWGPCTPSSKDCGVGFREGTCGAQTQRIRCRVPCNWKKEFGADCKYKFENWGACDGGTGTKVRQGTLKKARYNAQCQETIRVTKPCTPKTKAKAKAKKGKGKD
Test: pull-down; indicated constructs expressed in HEK293T cells for 24 h; cell lysates pulled down with S protein beads (Fig. 2b, c)

For AMPKγ (human (endogenous in HEK293T)), the binding was “binds”.

No constants are given. Whether binding was seen depends on the method and setting. In cells and extracts the contact can be indirect. A result given as binding can be weak or reduced; the word gives no strength.
